Laboratory results as given in paper PMC10267149, “The structure of phosphatidylinositol remodeling MBOAT7 reveals its catalytic mechanism and enables inhibitor identification” (Nature Communications, 2023).
These are yes or no findings as the source states them, for the method shown.

Biological target: T1, Membrane-bound O-acyltransferase (MBOAT) 7 from Homo sapiens (human), Q96N66
T1 chain: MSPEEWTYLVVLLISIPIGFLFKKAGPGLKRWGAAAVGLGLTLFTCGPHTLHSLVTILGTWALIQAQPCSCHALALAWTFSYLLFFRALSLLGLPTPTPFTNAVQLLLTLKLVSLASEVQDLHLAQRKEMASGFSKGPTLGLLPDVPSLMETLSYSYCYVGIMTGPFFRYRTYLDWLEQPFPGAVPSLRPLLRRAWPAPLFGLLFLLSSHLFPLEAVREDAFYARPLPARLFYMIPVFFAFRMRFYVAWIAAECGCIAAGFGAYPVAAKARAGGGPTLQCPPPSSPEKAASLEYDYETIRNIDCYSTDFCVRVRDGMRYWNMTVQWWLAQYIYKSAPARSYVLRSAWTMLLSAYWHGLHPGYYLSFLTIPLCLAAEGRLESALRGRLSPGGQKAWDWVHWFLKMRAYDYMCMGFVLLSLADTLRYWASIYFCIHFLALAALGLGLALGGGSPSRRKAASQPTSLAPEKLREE
Test: cryo-EM structure; single-particle cryo-EM of purified MBOAT7 reconstituted in amphipol PMAL-C8, 5–6 mg/ml, apo state; both purified
Settings: remark: other sources report otherwise

binding: no binding (tested: 5–6 mg/ml)
B1: Membrane-bound O-acyltransferase (MBOAT) 7 from Homo sapiens, Q96N66 1-472 (enzyme)
chain: MSPEEWTYLVVLLISIPIGFLFKKAGPGLKRWGAAAVGLGLTLFTCGPHTLHSLVTILGTWALIQAQPCSCHALALAWTFSYLLFFRALSLLGLPTPTPFTNAVQLLLTLKLVSLASEVQDLHLAQRKEMASGFSKGPTLGLLPDVPSLMETLSYSYCYVGIMTGPFFRYRTYLDWLEQPFPGAVPSLRPLLRRAWPAPLFGLLFLLSSHLFPLEAVREDAFYARPLPARLFYMIPVFFAFRMRFYVAWIAAECGCIAAGFGAYPVAAKARAGGGPTLQCPPPSSPEKAASLEYDYETIRNIDCYSTDFCVRVRDGMRYWNMTVQWWLAQYIYKSAPARSYVLRSAWTMLLSAYWHGLHPGYYLSFLTIPLCLAAEGRLESALRGRLSPGGQKAWDWVHWFLKMRAYDYMCMGFVLLSLADTLRYWASIYFCIHFLALAALGLGLALGGGSPSRRKAASQPTSLAPEKLREE
